In series [1] the target is p53 wild type (UniProt P04637). As to the kind of experiment: competition with a labelled probe. Conditions: KD N.A., purified recombinant protein.
The target in series [2] is p53 wild type (UniProt P04637). The experiment in a line: binding assay. The note with it: purified recombinant protein; for Kd: KD listed in table, measurement method and source not stated.
In series [3] the target is p53 wild type (H1299 EI cell lysate, PonA induced) (UniProt P04637). The experiment in a line: binding assay. The note with it: DLS in cell lysate; p53-null EI lysate gives negligible shift; larger with ActD, Dox, etoposide; protein in a lysate after overexpression; label: gold nanoparticle.
In series [4] the target is human serum albumin (Homo sapiens) (UniProt P02768). As to the kind of experiment: binding assay. Conditions: DLS, negligible binding; purified native protein; label: gold nanoparticle.
The target of series [5] is bovine serum albumin (Bos taurus) (UniProt P02769). The experiment in a line: binding assay. Conditions: purified native protein, label: gold nanoparticle.
Series [6] concerns the target estrogen receptor beta (ERβ) (UniProt Q92731). As to the kind of experiment: binding assay. The note with it: DLS complex peak at 200-300 nm, 10 nM ERβ, within 5 min; also with trimer probes; purified recombinant protein; label: gold nanoparticle.
Series [7] has as its target estrogen receptor alpha (ERα) (UniProt P03372). As to the kind of experiment: binding assay. The note with it: DLS complex peak similar to ERβ; purified recombinant protein; label: gold nanoparticle.

By UniProt entry, the sequences of proteins in these tests, tags left out.
UniProt Q92731, whole entry: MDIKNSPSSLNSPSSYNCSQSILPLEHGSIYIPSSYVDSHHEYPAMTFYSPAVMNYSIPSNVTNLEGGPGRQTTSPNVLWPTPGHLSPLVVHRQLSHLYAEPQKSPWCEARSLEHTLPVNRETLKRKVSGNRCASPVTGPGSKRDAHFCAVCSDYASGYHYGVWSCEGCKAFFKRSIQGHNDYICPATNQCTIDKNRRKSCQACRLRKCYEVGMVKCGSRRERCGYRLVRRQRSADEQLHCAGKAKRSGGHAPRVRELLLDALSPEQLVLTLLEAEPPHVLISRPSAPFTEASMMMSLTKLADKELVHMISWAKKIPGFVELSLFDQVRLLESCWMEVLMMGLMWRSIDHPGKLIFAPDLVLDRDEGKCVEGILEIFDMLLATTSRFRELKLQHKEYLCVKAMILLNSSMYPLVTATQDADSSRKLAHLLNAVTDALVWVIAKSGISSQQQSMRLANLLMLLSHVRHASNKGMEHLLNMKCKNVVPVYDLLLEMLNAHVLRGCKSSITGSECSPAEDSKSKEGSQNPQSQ

Construct, isoform or probe ends are uncertain for at least one entry. For some of these results: A negative result means that nothing was seen under these conditions. For some of these results: The comparison behind a weaker result is the experiment's own reference, which may not be listed here. For some of these results: Results from cells or extracts need not show a direct contact.

As usually defined, the Kd is the equilibrium constant for the complex coming apart.

Turning to “ACCTGGGGAATTTCCGGGAATTTCCGCTGA (double strand) [ConAmut4]”, the binding result with p53 wild type [1] (excess free DNA vs PUMA-AuNP, DLS, order ConA>GADD45>Bax>ConAmut4>WRNC>Scrambled, variant of ConA) is “binds more weakly”.

On to “ATCATGAAAGGTGGATTTAGGTGGAAGCTC (double strand) [WRNC]”, for which the binding result with p53 wild type [1] (negative control, rank 5 of 6, DLS competition) is listed as “binds more weakly”.

Turning to “ATCATGAACATGTCTAAGCATGCTGAGCTC (double strand) [GADD45]”, the Kd with p53 wild type [2] worked out at 7.7 nM.

As for “TCATTCACAAGTTAGAGACAAGCCTAGCTC (double strand) [Bax a]”, in the series with p53 wild type [2], the equilibrium dissociation constant (Kd) amounted to 73 nM.

Turning to “GGACAAGTCAGGACTTGCAG [PUMA response element (PUMA-AuNP dumbbell linker)]”, the binding result in series [3] is on record as “binds”; with p53 wild type [2] (DLS size shift, linear 0-12 pM p53, plateau about 15 min, about 120 nm size increase at about 6 pM, label: gold nanoparticle), “binds”; in series [4] it was “no binding”; in series [5] (DLS, negligible binding) it was “no binding”.

Take “GTTAGAGATGCGAGAGTTCAGTAAGCGGGGCAGA (double strand) [Scrambled]”: in the series with p53 wild type [1] (negative control, lowest rank of 6, DLS competition, variant of ConA), the binding result was “no binding”.

As for “GGTCACTGTGACC [ERE dumbbell probe (seq A/seq B/100-mer linker)]”, the binding result in series [6] is on record as “binds”; in series [7] it was “binds”; in series [5] (DLS size unchanged, no complex peak), “no binding”.

Consider “GTTAGAGGGGCATGTCCGGGCATGTCCGGGCAGA (double strand) [ConA]”, for which the Kd with p53 wild type [2] worked out at 3 nM.

These data come from patent US20180172678.
